{"source": "paper PMC3429506", "about": "“Screening for Novel LRRK2 Inhibitors Using a High-Throughput TR-FRET Cellular Assay for LRRK2 Ser935 Phosphorylation” (PLoS ONE, 2012)", "format_in_all_cases": "cell-based", "key": {"[1]": {"target": "T1, GFP-LRRK2 G2019S (Homo sapiens, UniProt Q5S007, G2019S)", "T1 construct": "expressed in transfected cells", "experiment": "Immunoprecipitation/Western analysis of LRRK2 phosphorylation at Ser910, Ser935, Ser955, Ser973 in HEK293 T-REx GFP-LRRK2 G2019S cells", "protocol": "(§1) Immunoblot analysis: BacMam LRRK2-GFP transduced U-2 OS or SH-SY5Y cells (10^7 cells) were left untreated or treated with 3 µM LRRK2-IN-I for 90 min. For lysate preparation, the cells were washed once with ice-cold PBS and lysed by addition of ice-cold lysis buffer (20 mM Tris-HCl, pH 7.4, 1% NP-40, 5 mM EDTA, 5 mM NaF, 150 mM NaCl, and 1∶100 of protease and phosphatase inhibitor cocktails). The lysate was cleared of debris by centrifugation. Equal amount of total protein was loaded onto each lane for SDS-PAGE (3–8% Tris Acetate). The proteins were transferred onto nitrocellulose membrane using the iBLOT® dry blotting system (Life Technologies) according to manufacturer’s protocol. The membranes were blocked and incubated with a primary antibody against LRRK2 (Cell Signaling Technologies), followed by incubation with alkaline phosphatase-conjugated secondary antibody (WesternBreeze® chromogenic Kit, Life Technologies). The blot was developed by using the chromogenic BCIP/NBT substrate (WesternBreeze® chromogenic Kit, Life Technologies). Immunoprecipitation analysis: HEK293 cells were induced to express GFP-LRRK2 G2019S by inclusion of doxycycline in the culture media at 1 µg/mL. Two days post induction, cells were treated for 90 minutes in the presence of 20 µM of compound or DMSO vehicle control. […]"}, "[2]": {"target": "T2, LRRK2 A2016T/G2019S (Homo sapiens, UniProt Q5S007, A2016T/G2019S)", "T2 construct": "expressed in transfected cells", "experiment": "Immunoprecipitation/Western analysis of LRRK2 phosphorylation in T-REx HEK293 cells expressing inhibitor desensitizing mutant", "conditions": "20 µM, Figure 6 IRM", "protocol": "as §1"}, "[3]": {"target": "LRRK2 G2019S (Homo sapiens, UniProt Q5S007, G2019S)", "experiment": "TR-FRET cellular assay for LRRK2 Ser935 phosphorylation, SH-SY5Y cells, BacMam LRRK2-GFP G2019S (incl. Tocriscreen Mini library screen and follow-up)", "parameters": "This high-throughput assay utilizes cells expressing full-length human LRRK2 with a C-terminal GFP tag (LRRK2-GFP); host or cells: SH-SY5Y cells transduced with BacMam", "protocol": "U-2 OS cells are maintained in growth medium (McCoy’s 5A supplemented with 10% dialyzed FBS (dFBS), 10 mM HEPES, 0.1 mM NEAA, 1 mM Sodium Pyruvate, and 100 U/mL Penicillin/100 µg/mL Streptomycin). HEK293T cells are maintained in DMEM with 10% dFBS, 10 mM HEPES, 0.1 mM NEAA and 100 U/mL Penicillin/100 µg/mL Streptomycin. SH-SY5Y cells are maintained in DMEM/F-12 medium supplemented with 10% dFBS and 100 U/mL Penicillin/100 µg/mL Streptomycin. […] GIBCO® human neural stem cells (hNSCs) were propagated as an adherent culture in StemPro® NSC SFM according to the manufacturer’s recommended protocol (Life Technologies). […]\nTransduced cells in the 384-well assay plate were incubated with indicated inhibitors (5X, 5 µL/well) for 60 to 90 minutes. […] Z′-factor values were calculated as: Z′-factor = 1 - [(3 × stdevno virus +3 × stdevmaxvirus)/(avgmaxvirus – avgno-virus)]. […]\n40 nL of 10 mM Tocris library compounds in DMSO were dispensed into each well of the assay plate by the ECHO system. […] The percent inhibition is calculated as: [(average emission ratios of DMSO control wells – average emission ratios of compound wells)/(average emission ratios of DMSO control wells – average emission ratios of LRRK2-IN-1 treated wells)] * 100. […] Z′-factor value was calculated as: Z′-factor = 1 - [(3 × stdevLRRK2-IN-1+3 × stdevDMSO)/(avgDMSO – avgLRRK2-IN-1)]. […]"}}, "data": [{"smiles": "O=C1NC(=O)c2c1c(-c1ccccc1)cc1[nH]c3ccc(O)cc3c21", "note": "[PD 407824]", "values": [{"measurement": "effect on phosphorylation of Ser910, Ser935, Ser955 and Ser973 (IP-Western)", "setting": "[1]", "result": "inhibited phosphorylation of Ser910, Ser935, Ser955 and Ser973"}, {"measurement": "effect of desensitizing mutation A2016T/G2019S on compound-induced dephosphorylation (IP-Western)", "setting": "[2]", "result": "did not show decreased sensitivity"}, {"measurement": "Cellular TR-FRET Assay Max % Inhibition", "setting": "[3]", "result": 65, "unit": "%"}, {"measurement": "%Inhibition Initial screen", "setting": "[3]; 20 µM", "result": 67.3, "unit": "%"}]}]}
